One may read the AC50 as the concentration at which the activity in the assay is half-maximal.

The list shows a part of the results. Shown are side measurements of this screen, not its main read-out; they come without a call. Compounds called inactive in the main read-out are mostly missing here. Potencies come from curve fits of mixed quality, noted in brackets.

Cell number change and AC50 data for 37 compounds are collected here from PubChem BioAssay AID2685 (National Center for Advancing Translational Sciences (NCATS), 2010).

The nature of this experiment: qHTS Assay for Lipid Storage Modulators in Drosophila S3 Cells.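 For Cell number change: cells counted by Cell Tracker Red CMTPX staining in the red channel.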 As to conditions: BODIPY lipid droplet fluorescence, 18-24 h; for cell number change: measured here: cell count max response, cells fed with added oleic acid. The method, boiled down:
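Drosophila S3 cells got compounds at several concentrations plus oleic acid (400 uM solution). Laser-scanning cytometry with 488 nm excitation read lipid droplets at 500-530 nm and cells at 575-640 nm. Percent activity was relative to 20 uM Triacsin C.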
Background: qHTS replaces the single test concentration by a dilution series.

The mark [1] stands for this setting: measured here: lipid fluorescence (Fed channel) AC50, cells fed with added oleic acid.
The mark [2] stands for this setting: measured here: cell number channel AC50, cells fed with added oleic acid.

`Cc1ccc(N(C(=O)c2ccc(CN3CCOCC3)o2)C(C(=O)NCCC(C)C)c2cccs2)c(C)c1` (stereo not given): the cell number change came out at 28.6%. Moreover, the half-maximal activity concentration (AC50) under setting [1] is 1.84 µM [falling, partial curve, poor fit].
Consider `COC(=O)c1ccc(NC(=O)c2nc(S(=O)(=O)Cc3cccc(C)c3)ncc2Cl)cc1`, for which, under setting [1], the AC50 was 6.51 µM [falling, single point].
Turning to `O=C(Nc1nnc(-c2ccc(Br)cc2)o1)C1=COCCO1`, the cell number change was found to be 17.7%.
As to `O=C(OCC(=O)N1CCOCC1)c1cccc(F)c1`, the cell number change is -13.5%. In addition, the AC50 under setting [1] is 25.9 µM [rising, single point].
Consider `CC1(C)OC(=O)C(=Cc2ccc(-c3ccc(S(N)(=O)=O)cc3)o2)C(=O)O1`, for which the cell number change is -42.1%. The concentration at half-maximal activity (AC50) under setting [2] is 0.0206 µM [falling, full curve, poor fit].
`CC(C)n1c(=S)[nH]c2c1c(=O)[nH]c(=O)n2C`: the cell number change was -8.77%.
Turning to `COC(=O)C(Cc1cnc(Cl)s1)(C(=O)OC)c1ccc([N+](=O)[O-])cc1`, the cell number change came out at 67.2%. Further, the concentration at half-maximal activity (AC50) under setting [2] is 18.4 µM [rising, single point]. The AC50 under setting [1] is 29.1 µM [rising, single point].
On to `CCCCC1(C)NC(=O)c2c(C)sc(C(=O)OCC)c2N1` (stereo not given), for which the cell number change came to 5.65%. The half-maximal activity concentration (AC50) under setting [1] is 6.51 µM [falling, single point].
As to `N/C(=N\OC(=O)c1ccc2c(c1)OCO2)c1ccc(Cl)cc1`, the cell number change came to 2.76%.
`Cc1ccc(-c2nnn(CC(=O)N(Cc3ccco3)C(C(=O)NC(C)(C)C)c3ccc(C)o3)n2)o1` (stereo not given): the cell number change was -54.8%. Moreover, the half-maximal activity concentration (AC50) under setting [2] was 10.3 µM [falling, partial curve]. The AC50 under setting [1] was 3.26 µM [falling, partial curve, poor fit].
For the compound `COc1ccc(C)cc1S(=O)(=O)N1CC(C)OC(C)C1` (stereo not given), the cell number change was -0.0228%. Also, the concentration at half-maximal activity (AC50) under setting [2] was 5.8 µM [rising, single point].
Regarding `CCC(=O)Nc1nonc1-c1nc2ccccc2n1N(C(=O)CC)C(=O)CC`, the cell number change was -11.4%. Moreover, the AC50 under setting [1] was 4.61 µM [falling, partial curve].
Turning to `Cc1ccc(C(=O)c2ccccc2C(=O)OCC(=O)NCCc2ccc(Cl)cc2Cl)cc1`, the cell number change is -19.5%. Further, under setting [1], the half-maximal activity concentration (AC50) is 32.6 µM [falling, single point].
In the case of `O=C(O)c1nn(-c2ccccc2)nc1-c1nn(-c2ccccc2)nc1C(=O)O`, the cell number change was -16.9%.
In the case of `C/C(=C/CCC(C)C1CCC2(C)C3CCC4C(C)(C)C(=O)CCC4(C)C3=CCC12C)C(=O)O` (stereo not given), the cell number change is -22.7%. In addition, the concentration at half-maximal activity (AC50) under setting [1] was 0.651 µM [falling, single point].
Take `COc1ccc(-c2[nH]ncc2CN(C)Cc2cnccn2)c(OC)c1`: under setting [1], the AC50 was 2.06 µM [falling, single point].
In the case of `O=C(CCCSc1nc(-c2ccco2)cc(C(F)(F)F)n1)Nc1ccc2c(c1)OCO2`, the cell number change is -76.1%. The AC50 under setting [2] is 29.1 µM [falling, single point].
Take `Cc1ccccc1OCc1nnc(SCC(=O)Nc2ccc3nc(SCC(=O)Nc4ccccc4)sc3c2)n1C`: the cell number change is 14.3%. Further, under setting [1], the AC50 was 0.206 µM [rising, partial curve].
`CCCCN(CC)CCCNC(=O)CC1Oc2ccccc2NC1=O` (stereo not given): the cell number change is -40.8%. Further, under setting [2], the AC50 is 3.26 µM [falling, full curve]. In addition, the AC50 under setting [1] is 5.17 µM [falling, partial curve].
As for `Cc1cc(C)cc(NC(=O)CS(=O)(=O)c2ccccc2)c1`, the cell number change was -14.8%. Further, under setting [1], the AC50 is 1.46 µM [rising, partial curve, poor fit].
With `Cc1ccc(NC(=O)CCS(=O)(=O)c2ccc3nc(C)sc3c2)cc1`, the cell number change amounted to 23.9%. Moreover, the concentration at half-maximal activity (AC50) under setting [2] is 0.13 µM [rising, full curve, poor fit]. Besides, the AC50 under setting [1] was 0.146 µM [rising, full curve, poor fit].
Take `Cc1cccc(C)c1-n1c(C)cc(/C=C2\NC(=O)NC2=O)c1C`: the cell number change was -55.3%. Also, the AC50 under setting [2] is 20.6 µM [falling, single point]. Further, the AC50 under setting [1] was 20.6 µM [falling, single point].
For the compound `Nc1nc(NCc2ccco2)nc(NC2CCCCC2)c1[N+](=O)[O-]`, the cell number change stood at 8.04%. Further, the concentration at half-maximal activity (AC50) under setting [1] is 0.259 µM [rising, full curve].
For `CC(=O)c1ccc(N2CCN(CC(O)COCc3ccco3)CC2)cc1` (stereo not given), the cell number change amounted to 7.52%.
Same read-out and setting: in the case of `COCCNC(=O)COC(=O)CSCc1nc2ccccc2s1` it was 6.36%.
Turning to `CC(C)CN(CCNC(=O)CN1C(=O)COc2ccc(S(=O)(=O)N3CCC(C)CC3)cc21)CC(C)C`, the cell number change was 19.2%. For the same compound, the half-maximal activity concentration (AC50) under setting [1] was 18.4 µM [rising, single point].
On to `O=C(Nc1nc2nc(-c3ccccc3)cc(=O)n2[nH]1)c1ccc(F)cc1`, for which the cell number change stood at 17%. Moreover, the AC50 under setting [1] is 32.6 µM [rising, single point].
As for `CCCN1CCN(C(=O)C2CCN(S(=O)(=O)c3ccc4c(c3)NC(=O)C(C)S4)CC2)CC1` (stereo not given), the cell number change worked out at 14.2%. The AC50 under setting [1] is 0.0731 µM [rising, full curve, poor fit].
As for `O=S(=O)(NCc1cccnc1)c1cccs1`, the cell number change amounted to 5.22%.
On to `O=C(NCCCN=C1NS(=O)(=O)c2ccccc21)c1ccc(S(=O)(=O)N2CCOCC2)cc1`, for which the cell number change was -29%. Besides, the AC50 under setting [2] was 0.13 µM [falling, full curve, poor fit]. The AC50 under setting [1] was 1.46 µM [falling, full curve, poor fit].
On to `CC(NCC(=O)Nc1ccccc1C(=O)NC1CC1)c1ccc(F)cc1F` (stereo not given), for which the cell number change is -29.9%. Further, under setting [2], the AC50 was 2.91 µM [falling, full curve, poor fit]. The concentration at half-maximal activity (AC50) under setting [1] is 2.31 µM [falling, single point].
As for `COc1ccc(-c2cc(C(F)F)n3ncc(C(=O)N4CCCCC4)c3n2)cc1`, the cell number change is -0.61%. Further, the AC50 under setting [1] was 18.4 µM [falling, single point].
In the case of `CCOC(=O)C1=C(C)N(c2ccccc2)C(=O)C1CC(=O)O` (stereo not given), the cell number change was 39.1%. The half-maximal activity concentration (AC50) under setting [2] is 29.1 µM [rising, single point]. Further, under setting [1], the concentration at half-maximal activity (AC50) was 4.61 µM [falling, full curve, poor fit].
Take `Fc1ccccc1COc1ccccc1/C=N/Nc1nc(N2CCCC2)nc(N2CCCC2)n1`: the cell number change was found to be 10.8%. For the same compound, under setting [1], the AC50 is 4.61 µM [falling, single point].
As for `CCCNC(=O)C1(S(=O)(=O)c2ccccc2)CC=CC1`, the cell number change came out at 6.59%. In addition, the AC50 under setting [1] was 29.1 µM [rising, single point].
For `COc1ccc(CNc2ccc(C)c(C)c2)c(OC)c1OC`, the cell number change came to 0.221%. The AC50 under setting [2] is 6.51 µM [rising, single point]. Also, the half-maximal activity concentration (AC50) under setting [1] is 6.51 µM [rising, partial curve, poor fit].
As for `N#CC1CN(Cc2ccccc2)CN(Cc2ccccc2)C1`, the cell number change is 15.2%. For the same compound, under setting [2], the half-maximal activity concentration (AC50) was 2.59 µM [falling, single point]. Besides, the half-maximal activity concentration (AC50) under setting [1] was 5.17 µM [falling, partial curve, poor fit].
